US20230339886A1 (University of Florida Research Foundation, Incorporated, priority 2020, published 2023)
The match of structure and compound is tentative.

Chains of the proteins cited; added tags and fusions are not shown. A line that says so, or that is headed by a name, gives the form on record, which may keep a tag or linker. Residues count along the entry.
UniProt P20393, 281-614 with tags or gaps DEL324-422 limits assumed: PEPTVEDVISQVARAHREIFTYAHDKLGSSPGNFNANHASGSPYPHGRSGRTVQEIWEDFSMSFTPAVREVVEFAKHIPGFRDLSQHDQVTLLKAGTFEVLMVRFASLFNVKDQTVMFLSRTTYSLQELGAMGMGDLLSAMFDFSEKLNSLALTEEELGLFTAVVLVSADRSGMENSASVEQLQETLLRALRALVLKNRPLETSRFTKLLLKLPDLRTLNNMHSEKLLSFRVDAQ
UniProt Q9Y618, 2335-2356 partner limits assumed: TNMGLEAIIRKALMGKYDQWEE

Target: REV-ERBα LBD (human; residues 281-614 Δ324-422) (Homo sapiens, UniProt P20393, DEL324-422)
Experiment: TR-FRET corepressor interaction assay (REV-ERBα LBD, FITC-SMRT peptide)
Assay type: biochemical
Conditions: read-out: REVERBα agonism (EC50 class, FRET assay), Table 2

SMILES | EC50
CC(C)Cn1cc(-c2ccc(NS(=O)(=O)C(C)C)cc2)c2ccc(-c3ccccc3)cc21 | > 3000 nM
CC(C)Cn1cc(C2CCCN(S(=O)(=O)C(C)C)C2)c2ccc(-c3ccccc3)cc21 (centres unmarked) | 500 to 3000 nM
